These are yes or no findings as the source states them, for the method shown. Sequences can lack the tags named with a protein.

The test concerns the target T1, His-tagged CHCHD10^WT recombinant protein (human), Q8WYQ3.
T1 chain: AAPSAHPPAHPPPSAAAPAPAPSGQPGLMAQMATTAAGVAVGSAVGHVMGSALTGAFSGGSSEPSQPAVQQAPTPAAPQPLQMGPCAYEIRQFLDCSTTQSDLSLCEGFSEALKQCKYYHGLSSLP
The test is described as follows: filter trap assay; purified protein incubated by itself at 1 μM, 37 °C, 8 h, vigorous shaking (1200 rpm); filtered through 0.2 μm cellulose acetate membrane, retained aggregates probed with antibody; both purified. To be noted: remark: other sources report otherwise.

B1: His-tagged CHCHD10^WT recombinant protein, Q8WYQ3 17-142 (protein)
chain: AAPSAHPPAHPPPSAAAPAPAPSGQPGLMAQMATTAAGVAVGSAVGHVMGSALTGAFSGGSSEPSQPAVQQAPTPAAPQPLQMGPCAYEIRQFLDCSTTQSDLSLCEGFSEALKQCKYYHGLSSLP
Turning to B1, the binding result was “no binding (tested: 1 μM)”.

The values above are taken from publication PMC9254494, “Modulation of synaptic plasticity, motor unit physiology, and TDP-43 pathology by CHCHD10” (Acta Neuropathologica Communications, 2022).
